{"sequences": {"note": "Amino acid sequences for entries named in this document (tags omitted). A change or cut given only in a name is not applied to a line headed by its entry.", "UniProt Q03347, whole entry": "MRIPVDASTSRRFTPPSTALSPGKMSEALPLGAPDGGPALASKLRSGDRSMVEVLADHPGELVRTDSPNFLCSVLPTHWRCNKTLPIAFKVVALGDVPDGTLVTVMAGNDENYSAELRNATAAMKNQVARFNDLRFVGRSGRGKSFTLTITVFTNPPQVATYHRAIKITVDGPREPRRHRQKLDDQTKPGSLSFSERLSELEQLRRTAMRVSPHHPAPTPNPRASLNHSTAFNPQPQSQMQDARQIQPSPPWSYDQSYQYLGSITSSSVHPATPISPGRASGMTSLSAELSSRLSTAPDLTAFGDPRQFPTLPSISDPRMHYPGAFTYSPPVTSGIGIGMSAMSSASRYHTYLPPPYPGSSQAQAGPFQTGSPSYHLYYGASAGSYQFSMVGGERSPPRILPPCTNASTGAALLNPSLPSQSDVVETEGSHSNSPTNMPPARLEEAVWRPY"}, "source": "paper doi:10.1101/2022.02.08.479534", "key": {"[1]": {"target": "T1, HA-tagged full-length FoxP3 (mouse) (UniProt Q99JB6)", "T1 sequence": "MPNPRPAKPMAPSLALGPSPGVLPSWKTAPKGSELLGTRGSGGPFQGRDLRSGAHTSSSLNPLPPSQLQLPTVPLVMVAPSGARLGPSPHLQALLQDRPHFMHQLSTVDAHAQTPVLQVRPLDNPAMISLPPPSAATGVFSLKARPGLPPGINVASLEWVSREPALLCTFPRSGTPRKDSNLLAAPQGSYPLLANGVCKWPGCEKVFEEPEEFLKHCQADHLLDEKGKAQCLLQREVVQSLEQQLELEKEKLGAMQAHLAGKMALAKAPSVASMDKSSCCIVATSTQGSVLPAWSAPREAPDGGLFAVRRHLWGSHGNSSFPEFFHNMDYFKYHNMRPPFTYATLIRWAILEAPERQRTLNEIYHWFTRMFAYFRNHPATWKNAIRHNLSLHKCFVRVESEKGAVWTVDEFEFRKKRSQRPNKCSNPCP", "assay": "co-IP"}, "[2]": {"target": "T2, HA-tagged full-length FoxP3 R337Q (mouse) (UniProt Q99JB6)", "T2 sequence": "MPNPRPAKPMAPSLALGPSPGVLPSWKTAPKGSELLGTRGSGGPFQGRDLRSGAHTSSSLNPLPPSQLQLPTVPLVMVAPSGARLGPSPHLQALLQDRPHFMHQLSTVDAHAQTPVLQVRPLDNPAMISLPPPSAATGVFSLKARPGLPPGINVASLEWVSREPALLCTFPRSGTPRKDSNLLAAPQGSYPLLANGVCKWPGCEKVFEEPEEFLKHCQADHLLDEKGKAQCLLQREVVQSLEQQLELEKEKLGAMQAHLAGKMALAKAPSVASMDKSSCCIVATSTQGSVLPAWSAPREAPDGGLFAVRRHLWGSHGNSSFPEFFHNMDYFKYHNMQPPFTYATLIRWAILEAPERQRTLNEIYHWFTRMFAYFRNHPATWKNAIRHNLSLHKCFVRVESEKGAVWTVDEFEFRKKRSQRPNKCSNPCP", "assay": "co-IP"}, "[3]": {"target": "T3, HA-tagged full-length FoxP3 R337Q+A372S (mouse) (UniProt Q99JB6)", "T3 sequence": "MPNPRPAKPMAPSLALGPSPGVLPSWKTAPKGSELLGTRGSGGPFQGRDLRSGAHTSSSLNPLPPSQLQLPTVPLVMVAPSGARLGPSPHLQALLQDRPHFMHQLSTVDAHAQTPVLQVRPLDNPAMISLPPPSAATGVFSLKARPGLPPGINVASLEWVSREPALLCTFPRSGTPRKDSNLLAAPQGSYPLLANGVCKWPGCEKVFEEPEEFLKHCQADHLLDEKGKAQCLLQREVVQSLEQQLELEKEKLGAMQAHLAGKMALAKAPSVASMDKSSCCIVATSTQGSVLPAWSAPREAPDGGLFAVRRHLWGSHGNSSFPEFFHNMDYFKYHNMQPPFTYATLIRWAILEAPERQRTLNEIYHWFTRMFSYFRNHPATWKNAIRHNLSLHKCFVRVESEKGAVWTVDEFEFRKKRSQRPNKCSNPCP", "assay": "co-IP"}, "[4]": {"target": "NusA-tagged FoxP1^RBR-forkhead (mouse) (UniProt P58462)", "assay": "SEC-MALS"}, "[5]": {"target": "NusA-tagged FoxP2^RBR-forkhead (mouse) (UniProt P58463)", "assay": "SEC-MALS"}, "[6]": {"target": "NusA-tagged FoxP4^RBR-forkhead (mouse) (UniProt Q9DBY0)", "assay": "SEC-MALS"}}, "note": "Results are given in words; binding and its absence hold for the method and conditions named. For part of these data: In cells and extracts the contact can be indirect. Some binding calls cover weakened binding; strength is not graded here. Where a sequence is shown, tags or fusion partners need not be part of it.", "data": [{"molecule": "FLAG-tagged full-length Runx1 (from UniProt Q03347 1-451)", "values": [{"measurement": "binding", "setting": "[1]", "result": "binds"}, {"measurement": "binding", "setting": "[2]", "result": "binds"}, {"measurement": "binding", "setting": "[3]", "result": "binds"}]}, {"molecule": "NusA-tagged FoxP1^RBR-forkhead (domain or fragment, UniProt P58462 433-579) HTPTTPTAPLTPVTQGPSVITTTSMHTVGPIRRRYSDKYNVPISSADIAQNQEFYKNAEVRPPFTYASLIRQAILESPEKQLTLNEIYNWFTRMFAYFRRNAATWKNAVRHNLSLHKCFVRVENVKGAVWTVDEVEFQKRRPQKISG", "values": [{"measurement": "binding", "setting": "[4]", "result": "no binding"}]}, {"molecule": "NusA-tagged FoxP2^RBR-forkhead (domain or fragment, UniProt P58463 447-588) TTPTAPVTPITQGPSVITPASVPNVGAIRRRHSDKYNIPMSSEIAPNYEFYKNADVRPPFTYATLIRQAIMESSDRQLTLNEIYSWFTRTFAYFRRNAATWKNAVRHNLSLHKCFVRVENVKGAVWTVDEVEYQKRRSQKIT", "values": [{"measurement": "binding", "setting": "[5]", "result": "no binding"}]}, {"molecule": "NusA-tagged FoxP4^RBR-forkhead (domain or fragment, UniProt Q9DBY0 418-577) GLGSASLHSGGPARRRSNDKFCSPISSELAQNHEFYKNADVRPPFTYASLIRQAILETPDRQLTLNEIYNWFTRMFAYFRRNTATWKNAVRHNLSLHKCFVRVENVKGAVWTVDEREYQKRRPPKMTGSPTLVKNMISGLSYGALNASYQAALAESSFPL", "values": [{"measurement": "binding", "setting": "[6]", "result": "no binding"}]}]}
